Experimental findings from PubChem BioAssay AID1487 (National Center for Advancing Translational Sciences (NCATS), 2009) are described below.

A short description of the assay: qHTS Assay for Modulators of Lamin A Splicing. As to conditions: HeLa LMNA splicing GFP/RFP minigene ratio, 48 h. The procedure, abridged:
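S3 HeLa stable clones carrying a lamin A-EGFP splicing minigene plus DsRed2 were seeded at 600 cells/well in Opti-MEM with 2% FBS, pin-dosed and incubated 48 h at 37°C. Acumen cytometry (488 nm) gave the GFP/RFP total-intensity ratio.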
For orientation: qHTS replaces the single test concentration by a dilution series.

Setting [1] is: measured here: RFP viability control channel.
Where [2] appears, read: measured here: GFP splicing reporter channel.

Several values for one entry are separate records, joined by “and”; a condition that tells them apart may be missing. Equal entries are not always repeated. The list shows a part of the results. Shown are side measurements of this screen, not its main read-out; they come without a call. Compounds called inactive in the main read-out are mostly missing here. The note in brackets gives the kind of curve behind each potency; many fits are weak.

One may read the AC50 as the concentration giving half of the maximal activity seen. Regarding `CCCCNC(=O)CSc1nc2ccc(N3CCOCC3)cc2c(=O)n1CCc1ccccc1`, the AC50 under setting [1] is 20 µM [rising, partial curve]. Still for that read-out and setting: with `CCCOc1ccc(Cc2nc(N)nc(N)n2)cc1` the figure was 14.1 µM [rising, single point]; with `Cc1cc(C(=O)CSc2nnnn2C)c(C)n1-c1ccc2c(c1)OCCO2`, 35.5 µM [rising, single point]; with `CCOc1ccc(NC(=O)Cn2nnc(C(=O)NCCc3ccc(OC)c(OC)c3)c2N)cc1`, 0.0708 µM [falling, full curve, poor fit]. Take `COc1ccc(S(=O)(=O)Nc2ccccc2-c2nnn(CC(=O)Nc3ccccc3OC)n2)cc1`: the AC50 by setting is: under setting [2], 5.01 µM [rising, full curve, poor fit]; under setting [1], 5.01 µM [rising, full curve]. Consider `CN(C)S(=O)(=O)c1cccc(C(=O)Nc2ccccc2[N+](=O)[O-])c1`, for which the AC50 is, setting by setting: under setting [2], 35.5 µM [rising, single point]; under setting [1], 25.1 µM [rising, single point]. With `COc1cc(N=c2ssnc2Cl)c(OC)cc1Cl`, the AC50 under setting [2] is 10 µM [rising, partial curve, poor fit]. In the case of `Cc1cc(C)c2c(N)c(C(=O)c3ccc(Cl)cc3Cl)sc2n1`, the concentration at half-maximal activity (AC50) under setting [1] is 22.4 µM [rising, single point].

In the case of `COc1ccccc1C(=O)OCC(=O)Nc1ccc(Cl)cn1`, the AC50 under setting [2] was 0.02 µM [rising, full curve, poor fit].

For the molecule `O=C(c1cccs1)c1ccc(-c2cccs2)s1`, the AC50 under setting [1] was 11.2 µM [rising, partial curve]. As for `CC(C)c1ccc(NC(=S)NC2CCN(Cc3ccccc3)CC2)cc1`, the AC50 under setting [1] is 35.5 µM [rising, single point]. As for `CCCCn1c(-c2csc(C(C)C)c2)n[nH]c1=S`, the half-maximal activity concentration (AC50) runs as follows: under setting [2], 11.2 µM [rising, single point]; under setting [1], 12.6 µM [rising, single point]. As to `O=C(CCCN1C(=O)c2ccccc2C1=O)N1CCc2ccccc2C1`, the AC50 is 2.24 µM [rising, full curve, poor fit] under setting [2] and 3.16 µM [rising, partial curve] under setting [1]. Take `Cc1cc(Cl)ccc1N(CC(=O)NCc1ccc2c(c1)OCO2)S(C)(=O)=O`: the half-maximal activity concentration (AC50) by setting is: under setting [2], 0.0224 µM [rising, full curve, poor fit]; under setting [1], 7.08 µM [rising, partial curve, poor fit].

For `Cc1ccc(NC(=O)CS(=O)(=O)c2c[nH]c3ccccc23)c(C)c1`, the AC50 is 15.8 µM [rising, single point] under setting [2] and 15.8 µM [rising, single point] under setting [1]. Regarding `O=S(=O)(Nc1ccc2c(c1)nc1n2CCN(Cc2ccccc2)C1)c1ccc(Cl)cc1`, the AC50 is 3.55 µM [rising, full curve, poor fit] under setting [2] and 12.6 µM [rising, partial curve] under setting [1]. For the molecule `C=CCn1c(SCc2cc(C(C)=O)ccc2OCC)nc2ccccc2c1=O`, the concentration at half-maximal activity (AC50) under setting [2] is 10 µM [rising, partial curve] and the AC50 under setting [1] was 4.47 µM [rising, partial curve]. Consider `COC(=O)c1[nH]c2cc(C)ccc2c1NC(=O)CN1CCc2cc(OC)c(OC)cc2C1`, for which the AC50 by setting is: under setting [2], 12.6 µM [rising, single point]; under setting [1], 11.2 µM [rising, partial curve]. Consider `COc1ccc(NC(=O)c2cc3nc(-c4ccccc4)cc(-c4ccccc4)n3n2)c(OC)c1`, for which the AC50 is 17.8 µM [rising, partial curve, poor fit] under setting [2] and 5.62 µM [rising, partial curve] under setting [1]. Turning to `COc1ccc(-n2cc3c(-c4cccc(Br)c4)nnc(C)c3n2)cc1`, the AC50 under setting [1] was 12.6 µM [rising, partial curve]. Consider `Cc1ccc(C)c(N2CCN(C(=O)c3ccc(NS(=O)(=O)c4c(C)noc4C)cc3)CC2)c1`, for which the AC50 was 1.78 µM [rising, partial curve, poor fit] under setting [2] and 11.2 µM [rising, partial curve] under setting [1]. Take `CCN(CC)CCNC(=O)c1cc2c(-c3ccc(Cl)cc3)nn(C)c2s1`: the half-maximal activity concentration (AC50) under setting [1] was 22.4 µM [rising, single point].

As to `CC(=O)Nc1nc2ccc(C(=O)NC3CCCCC3)cc2s1`, the AC50 reads like this: under setting [2], 20 µM [rising, partial curve, poor fit]; under setting [1], 11.2 µM [rising, partial curve, poor fit]. With `CC(=O)Nc1ccc(S(=O)(=O)Nc2nc3ccccc3nc2Nc2ccc3ccccc3c2)cc1`, under setting [1], the half-maximal activity concentration (AC50) is 22.4 µM [rising, single point]. Take `CC(NC(=O)C1CCCC1)C1CC2CCC1C2` (stereo not given): the AC50 is 0.0178 µM [falling, full curve, poor fit] under setting [2] and 0.0141 µM [falling, full curve, poor fit] under setting [1]. As to `COc1ccc(C2C(C(=O)N3CCN(c4ccccn4)CC3)CC(=O)N2c2ccc(OC)cc2)cc1` (stereo not given), the concentration at half-maximal activity (AC50) under setting [1] was 11.2 µM [rising, partial curve, poor fit].

Regarding `COCC(=O)N=Nc1c(O)[nH]c2ccccc12`, the concentration at half-maximal activity (AC50) is, setting by setting: under setting [2], 2.82 µM [falling, full curve, poor fit]; under setting [1], 3.98 µM [falling, single point]. Regarding `COc1cc(-c2nnc(COC(=O)c3c4c(nc5ccccc35)CCCC4)o2)cc(OC)c1OC`, the AC50 under setting [1] is 0.112 µM [falling, full curve]. Take `O=c1[nH]c(=O)n(C2CCCO2)cc1F` (stereo not given): the AC50 was 12.6 µM [falling, partial curve, poor fit] under setting [2]; 17.8 µM [rising, partial curve, poor fit] and 12.6 µM [rising, partial curve] under setting [1].

Regarding `Cc1cc(C)n2nc(C(=O)N/N=C/c3ccccc3Cl)nc2n1`, the AC50 under setting [2] was 1.12 µM [falling, partial curve] and the AC50 under setting [1] was 2 µM [falling, partial curve]. Consider `CCCCCOc1ccc(Br)cc1CSC(=N)N`, for which the AC50 under setting [2] was 35.5 µM [falling, single point]. On to `COc1ccc(OC)c(Nc2nc(-c3ccc(O)c(O)c3)cs2)c1`, for which, under setting [1], the AC50 was 2.82 µM [rising, full curve, poor fit]. As to `FC(F)(F)c1ccccc1-c1ccc2ncnc(NCc3cccs3)c2c1`, the half-maximal activity concentration (AC50) reads like this: under setting [2], 14.1 µM [falling, partial curve]; under setting [1], 12.6 µM [falling, partial curve].

For the molecule `CCN(CC)S(=O)(=O)c1cccc(NC(=O)/C=C/c2ccc([N+](=O)[O-])cc2)c1`, the concentration at half-maximal activity (AC50) under setting [1] was 15.8 µM [rising, single point]. Take `Cn1cc(CCCC(=O)NCc2ccc(F)cc2)c2ccccc21`: the AC50 is 1 µM [rising, full curve, poor fit] under setting [2] and 0.178 µM [rising, full curve, poor fit] under setting [1]. Consider `COc1ccc(-c2nc(NC(=O)Cn3ccc(C(F)(F)F)n3)sc2C)cc1`, for which the concentration at half-maximal activity (AC50) under setting [1] is 15.8 µM [rising, single point]. As to `CCOC(=O)c1ccc(NC(=O)c2noc3c2CCCC3)cc1`, the half-maximal activity concentration (AC50) under setting [1] was 0.00355 µM [falling, full curve, poor fit]. On to `Cc1cc(C)c(S(=O)(=O)N(CC(=O)N2CCCC2)C2CCCCC2)c(C)c1`, for which the AC50 is 3.98 µM [rising, full curve, poor fit] under setting [2] and 12.6 µM [rising, partial curve] under setting [1]. For the molecule `CC(NCCC(c1ccccc1)c1ccccc1)c1ccccc1` (stereo not given), the AC50 under setting [2] was 31.6 µM [rising, single point]. For the molecule `COc1cc(CNn2c(C)n[nH]c2=S)cc(Cl)c1OCc1ccc(F)cc1`, under setting [1], the AC50 is 35.5 µM [rising, single point].

As to `Cc1cc(N2CCN(C)CC2)nc2ccc(NC(=O)Nc3ccc(F)cc3)cc12`, under setting [2], the AC50 was 25.1 µM [falling, single point].

For `N#CCC(CNc1ncc(C(F)(F)F)cc1Cl)OC(=O)c1ccc(Cl)cc1Cl` (stereo not given), the half-maximal activity concentration (AC50) under setting [1] was 20 µM [rising, partial curve, poor fit]. Consider `CC(=O)Nc1ccccc1OCC(=O)N(Cc1ccccc1)C(C)C`, for which the AC50 under setting [1] was 10 µM [rising, partial curve].

Take `COc1ccccc1NC(=O)c1ccc(NC(=O)COC(=O)C2(C)CC2(Cl)Cl)cc1` (stereo not given): the AC50 under setting [1] is 14.1 µM [rising, single point]. On to `O=C(O)C1=NOC(CNC(=O)c2ccccc2Cl)C1` (stereo not given), for which the AC50 is, setting by setting: under setting [2], 0.112 µM [rising, full curve, poor fit]; under setting [1], 0.158 µM [rising, full curve, poor fit]. With `CCCc1cnc2c(c1SCC(=O)Nc1ccccc1F)c(=O)n(C)c(=O)n2C`, the AC50 under setting [1] was 6.31 µM [falling, partial curve, poor fit]. `CCOC(=O)C1(CCCc2ccccc2)CCN(Cc2cnc(C)s2)CC1`: the concentration at half-maximal activity (AC50) under setting [2] is 0.501 µM [falling, full curve, poor fit]. Consider `COc1ccc(NC(=O)CSC2=Nc3ccccc3C3=NC(CC(=O)NCc4ccc5c(c4)OCO5)C(=O)N23)cc1` (stereo not given), for which the AC50 reads like this: under setting [2], 0.282 µM [rising, partial curve, poor fit]; under setting [1], 1.12 µM [rising, full curve, poor fit]. In the case of `Cc1nc2ccc(S(=O)(=O)Nc3cc(-c4nc5cccnc5s4)ccc3C)cc2s1`, the half-maximal activity concentration (AC50) under setting [1] was 10 µM [rising, partial curve].

In the case of `COc1ccc2cc(Br)ccc2c1CC(=O)NC(C)(C)C`, the half-maximal activity concentration (AC50) reads like this: under setting [2], 22.4 µM [rising, single point]; under setting [1], 15.8 µM [rising, single point]. As for `C=CCN1C(=O)C(Cc2ccccc2)SC1=Nc1ccc(C(=O)O)cc1` (stereo not given), under setting [1], the AC50 was 0.0501 µM [falling, full curve, poor fit]. Still for that read-out and setting: next, `CCOC(=O)CS(=O)(=O)c1nc(-c2ccc(F)cc2)cc(C(F)(F)F)n1`: 25.1 µM [rising, single point]; `Cc1ccc(C)c(N2CCN(S(=O)(=O)c3ccc4c(c3)OCCO4)CC2)c1`: 12.6 µM [rising, single point].
